Measurements reported in PubChem BioAssay AID1259308 (NCATS, 2017).
Aim: 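Genes whose loss raises luciferase production in HEK293 cells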 (primary screen). Cell system: human HEK293 embryonic kidney cells stably expressing firefly luciferase (HEK-CMV-Luc2-Hygro). Knock-down reagent: single siRNA against human genes, 0.8 pmol siRNA per well. Duration: 72 h. Detection: 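Reporter luminescence and viable-cell signal on separate replicate plates, given as percent of non-targeting control and median/MAD z-scores, plus per-cell luciferase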. Direction: total luciferase, z-score and total luciferase, % of control: higher = more reporter protein produced; luciferase per cell, z-score: higher = more reporter output per viable cell; viable cells, % of control: higher = more viable cells. Call rule: 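An siRNA counts as active if its total luciferase robust z-score exceeds 3; genes with two or more such siRNAs out of three were retested with fresh siRNAs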. Calls: active = raised luciferase; inactive = no rise.
This is one part, drawn at random, of about 59,000 reagents. In the full data, about 1,510 (2.6%) got an active call. 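Calls use total luciferase alone and ignore viability, so some active siRNAs may act by altering cell number.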 Reagents against one gene are numbered here.

gene knocked down | reagent | total luciferase, z-score | total luciferase, % of control | luciferase per cell, z-score | viable cells, % of control | activity call
CIMIP2B (ciliary microtubule inner protein 2B) | 1 | 1.04 | 103 | 1.16 | 84.5 | inactive
CIMIP2B (ciliary microtubule inner protein 2B) | 2 | -0.284 | 76.2 | -0.721 | 103 | inactive
CIMIP2B (ciliary microtubule inner protein 2B) | 3 | -0.778 | 66.4 | -0.438 | 83.3 | inactive
PRICKLE1 (prickle planar cell polarity protein 1) | 1 | 0.239 | 86.6 | 0.123 | 93.7 | inactive
PRICKLE1 (prickle planar cell polarity protein 1) | 2 | -0.288 | 76.2 | -0.338 | 93 | inactive
PRICKLE1 (prickle planar cell polarity protein 1) | 3 | 0.511 | 92 | 1.01 | 78.9 | inactive
XIRP2 (xin actin binding repeat containing 2) | 1 | 0.241 | 86.7 | -0.00738 | 97.1 | inactive
XIRP2 (xin actin binding repeat containing 2) | 2 | 1.25 | 107 | 1.17 | 87.5 | inactive
XIRP2 (xin actin binding repeat containing 2) | 3 | -1.58 | 50.4 | -1.23 | 77.9 | inactive
NKX2-1 (NK2 homeobox 1) | 1 | -0.0598 | 80.7 | -0.538 | 104 | inactive
NKX2-1 (NK2 homeobox 1) | 2 | -0.671 | 68.5 | -1.1 | 102 | inactive
NKX2-1 (NK2 homeobox 1) | 3 | 1.37 | 109 | 0.606 | 104 | inactive
DCC (DCC netrin 1 receptor) | 1 | 2.53 | 132 | 2.05 | 86.2 | inactive
DCC (DCC netrin 1 receptor) | 2 | 0.0778 | 83.4 | -0.492 | 106 | inactive
DCC (DCC netrin 1 receptor) | 3 | 3.42 | 150 | 2.45 | 87.9 | active
PIGP (phosphatidylinositol glycan anchor biosynthesis class P) | 1 | -1.65 | 49.2 | -1.86 | 89.7 | inactive
PIGP (phosphatidylinositol glycan anchor biosynthesis class P) | 2 | 1.35 | 109 | 0.353 | 111 | inactive
PIGP (phosphatidylinositol glycan anchor biosynthesis class P) | 3 | -0.13 | 79.3 | 1.57 | 58.6 | inactive
RCC2P7 (regulator of chromosome condensation 2 pseudogene 7) | 1 | 2.32 | 128 | 2.62 | 71.7 | inactive
RCC2P7 (regulator of chromosome condensation 2 pseudogene 7) | 2 | -0.152 | 78.9 | -0.0568 | 89.5 | inactive
RCC2P7 (regulator of chromosome condensation 2 pseudogene 7) | 3 | -0.481 | 72.3 | -1.21 | 111 | inactive
MSH4 (mutS homolog 4) | 1 | 0.166 | 85.2 | -0.591 | 111 | inactive
MSH4 (mutS homolog 4) | 2 | -0.138 | 79.1 | -0.897 | 112 | inactive
MSH4 (mutS homolog 4) | 3 | 1.89 | 120 | 1.06 | 101 | inactive
RAB9A (RAB9A, member RAS oncogene family) | 1 | 0.33 | 88.4 | 0.358 | 89.9 | inactive
RAB9A (RAB9A, member RAS oncogene family) | 2 | -0.865 | 64.7 | -1.47 | 107 | inactive
RAB9A (RAB9A, member RAS oncogene family) | 3 | 0.653 | 94.9 | 0.356 | 96.5 | inactive
C1orf146 (chromosome 1 open reading frame 146) | 1 | 5.46 | 191 | 3.56 | 83.3 | active
C1orf146 (chromosome 1 open reading frame 146) | 2 | 2.84 | 138 | 2.43 | 81.5 | inactive
C1orf146 (chromosome 1 open reading frame 146) | 3 | -1.4 | 54 | -0.707 | 72.6 | inactive
NOA1 (nitric oxide associated 1) | 1 | -0.108 | 79.7 | -0.68 | 107 | inactive
NOA1 (nitric oxide associated 1) | 2 | 0.59 | 93.6 | 0.474 | 92.4 | inactive
NOA1 (nitric oxide associated 1) | 3 | -0.835 | 65.3 | -0.513 | 83.5 | inactive
TXNRD3 (thioredoxin reductase 3) | 1 | -0.235 | 77.2 | 0.18 | 82.3 | inactive
TXNRD3 (thioredoxin reductase 3) | 2 | 0.397 | 89.8 | 0.289 | 93 | inactive
TXNRD3 (thioredoxin reductase 3) | 3 | 0.392 | 89.7 | -0.319 | 109 | inactive
TXNRD3 (thioredoxin reductase 3) | 4 | -0.775 | 66.5 | -0.369 | 81.9 | inactive
TXNRD3 (thioredoxin reductase 3) | 5 | -1.23 | 57.3 | -1.45 | 93.8 | inactive
TXNRD3 (thioredoxin reductase 3) | 6 | -0.328 | 75.4 | 0.137 | 81.2 | inactive
TAPT1 (transmembrane anterior posterior transformation 1) | 1 | 0.615 | 94.1 | 0.884 | 83.3 | inactive
TAPT1 (transmembrane anterior posterior transformation 1) | 2 | -0.0879 | 80.1 | -0.68 | 107 | inactive
TAPT1 (transmembrane anterior posterior transformation 1) | 3 | -0.4 | 73.9 | -0.126 | 85.4 | inactive
LOC400682 (zinc finger protein 100-like) | 1 | -0.888 | 64.2 | -1.11 | 96.2 | inactive
LOC400682 (zinc finger protein 100-like) | 2 | 3.8 | 157 | 4.15 | 58.9 | active
LOC400682 (zinc finger protein 100-like) | 3 | 1.65 | 115 | 1.2 | 93.5 | inactive
PFN1P6 (profilin 1 pseudogene 6) | 1 | 0.578 | 93.4 | 2.02 | 61.4 | inactive
PFN1P6 (profilin 1 pseudogene 6) | 2 | -0.738 | 67.2 | -0.744 | 91.3 | inactive
PFN1P6 (profilin 1 pseudogene 6) | 3 | 0.255 | 87 | -0.132 | 101 | inactive
SNAI1 (snail family transcriptional repressor 1) | 1 | -0.926 | 63.5 | -0.0311 | 71.5 | inactive
SNAI1 (snail family transcriptional repressor 1) | 2 | 0.293 | 87.7 | -0.605 | 115 | inactive
SNAI1 (snail family transcriptional repressor 1) | 3 | -0.831 | 65.4 | -0.714 | 88.1 | inactive
SSUH2 (ssu-2 homolog) | 1 | 1.2 | 106 | 0.901 | 93.2 | inactive
SSUH2 (ssu-2 homolog) | 2 | -2.39 | 34.3 | -2.69 | 77.8 | inactive
SSUH2 (ssu-2 homolog) | 3 | -0.922 | 63.6 | -0.115 | 73.2 | inactive
KDELR2 (KDEL endoplasmic reticulum protein retention receptor 2) | 1 | 0.213 | 86.1 | 0.359 | 87.6 | inactive
KDELR2 (KDEL endoplasmic reticulum protein retention receptor 2) | 2 | 6.53 | 212 | 3.6 | 91.7 | active
KDELR2 (KDEL endoplasmic reticulum protein retention receptor 2) | 3 | 0.612 | 94.1 | 0.52 | 91.7 | inactive
MAGEA12 (MAGE family member A12) | 1 | -1.87 | 44.6 | -1.31 | 70.4 | inactive
MAGEA12 (MAGE family member A12) | 2 | -1.27 | 56.6 | -0.864 | 79.4 | inactive
MAGEA12 (MAGE family member A12) | 3 | 1.05 | 103 | 1.79 | 71.7 | inactive
ZNF713 (zinc finger protein 713) | 1 | 0.137 | 84.6 | -0.116 | 97.5 | inactive
ZNF713 (zinc finger protein 713) | 2 | -1.12 | 59.6 | -1.2 | 91.4 | inactive
ZNF713 (zinc finger protein 713) | 3 | -0.687 | 68.2 | -1.23 | 106 | inactive
PLK2 (polo like kinase 2) | 1 | -0.264 | 76.6 | -0.477 | 97.1 | inactive
PLK2 (polo like kinase 2) | 2 | -0.138 | 79.1 | -0.293 | 95.5 | inactive
PLK2 (polo like kinase 2) | 3 | 1.4 | 110 | 1.95 | 73.4 | inactive
HSD52 | 1 | -0.855 | 64.9 | -0.279 | 78 | inactive
HSD52 | 2 | 0.0795 | 83.5 | 0.958 | 72.5 | inactive
HSD52 | 3 | -0.244 | 77 | 0.177 | 82.2 | inactive
HHEX (hematopoietically expressed homeobox) | 1 | -0.131 | 79.3 | 0.173 | 84.7 | inactive
HHEX (hematopoietically expressed homeobox) | 2 | -1.09 | 60.2 | -1.49 | 99.6 | inactive
HHEX (hematopoietically expressed homeobox) | 3 | -1.49 | 52.2 | -1.73 | 92.1 | inactive
CLEC6A (C-type lectin domain containing 6A) | 1 | 1.99 | 122 | 2.23 | 75.4 | inactive
CLEC6A (C-type lectin domain containing 6A) | 2 | -0.64 | 69.1 | -0.452 | 87 | inactive
CLEC6A (C-type lectin domain containing 6A) | 3 | 0.126 | 84.4 | -0.0859 | 96.5 | inactive

Records above whose target name starts with N or n (6):
gene knocked down | reagent | total luciferase, z-score | total luciferase, % of control | luciferase per cell, z-score | viable cells, % of control | activity call
NKX2-1 (NK2 homeobox 1) | 1 | -0.0598 | 80.7 | -0.538 | 104 | inactive
NKX2-1 (NK2 homeobox 1) | 2 | -0.671 | 68.5 | -1.1 | 102 | inactive
NKX2-1 (NK2 homeobox 1) | 3 | 1.37 | 109 | 0.606 | 104 | inactive
NOA1 (nitric oxide associated 1) | 1 | -0.108 | 79.7 | -0.68 | 107 | inactive
NOA1 (nitric oxide associated 1) | 2 | 0.59 | 93.6 | 0.474 | 92.4 | inactive
NOA1 (nitric oxide associated 1) | 3 | -0.835 | 65.3 | -0.513 | 83.5 | inactive
